PubChem BioAssay AID504793, Drosophila RNAi Screening Center – 2011
In all, the deposit lists about 23,000 reagents; this is an unselected part of those that have a named target and a result. In the full data, 62 (0.27%) were called active. 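Calls come from follow-up tests whose scores are not deposited, so confirmed genes may have low counts here; counts are not normalised per plate.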 Raw values are not corrected between plates. A number with no mark means an inactive call. Names joined by + are all predicted targets of the reagent.

Assay: 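Genes required for cells to halt at G2/M after double-strand DNA breaks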 (primary screen)
System: Drosophila S2R+ cells
Reagent: long dsRNA against Drosophila genes, about 0.25 µg dsRNA per well
Time to read-out: 4 days of dsRNA, then 4 hours of drug before read-out
Challenge: doxorubicin 0.5 µM for 4 hours to cause double-strand breaks, in cells also given a low, harmless dose of dsRNA against nbs to sensitise the assay
Detection: 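Mitotic index as the number of phospho-histone H3-positive cells in each well following doxorubicin, given as raw counts without normalisation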
Direction: mitotic cells: higher = more cells in mitosis, weaker G2 arrest
Call rule: 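a call needs confirmation in secondary tests, with other dsRNAs and a check of mitotic timing without damage, not just a high primary count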
Calls: active = confirmed in follow-up tests; inactive = not confirmed

Against PGRP-LD + Pmi [DRSC10512], the values are mitotic cells, replicate 1 = 4.
Against PGRP-LD + Pmi [DRSC10513], the values are mitotic cells, replicate 1 = 10.
Trxr2 (Thioredoxin reductase 2) [DRSC11900] scored mitotic cells, replicate 1 = 4.
With knock-down of Trxr2 (Thioredoxin reductase 2) [DRSC25519] the results were mitotic cells, replicate 1 = 6.
Against Cpr92F (Cuticular protein 92F) [DRSC15819] the deposit lists mitotic cells, replicate 1 = 10.
Knock-down of 5-HT2A (5-hydroxytryptamine (serotonin) receptor 2A) [DRSC11990] gave: mitotic cells, replicate 1 = 10.
With knock-down of snoRNA:U31:54Ec + snoRNA:snR38:54Eb + snoRNA:U27:54Eb + 8 more [DRSC06458] the results were mitotic cells, replicate 1 = 6.
With knock-down of dpr4 (defective proboscis extension response 4) [DRSC14531], the screen gave mitotic cells, replicate 1 = 5.
dpr4 (defective proboscis extension response 4) [DRSC14929] scored mitotic cells, replicate 1 = 6.
For CG7988 [DRSC16358], the entry reads mitotic cells, replicate 1 = 13.

3 successive entries from above, quoted:
Cpr92F (Cuticular protein 92F) [DRSC15819] → mitotic cells, replicate 1 = 10
5-HT2A (5-hydroxytryptamine (serotonin) receptor 2A) [DRSC11990] → mitotic cells, replicate 1 = 10
snoRNA:U31:54Ec + snoRNA:snR38:54Eb + snoRNA:U27:54Eb + 8 more [DRSC06458] → mitotic cells, replicate 1 = 6

Next entries follow:
Zasp66 (Z band alternatively spliced PDZ-motif protein 66) [DRSC08932] scored mitotic cells, replicate 1 = 10.
For Zasp66 (Z band alternatively spliced PDZ-motif protein 66) [DRSC10631] the deposit lists mitotic cells, replicate 1 = 10.
After knock-down of Zasp66 (Z band alternatively spliced PDZ-motif protein 66) [DRSC10632] the results were mitotic cells, replicate 1 = 4.
Silencing of GatB (Glutamyl-tRNA amidotransferase, subunit B) [DRSC15807] gave: mitotic cells, replicate 1 = 12.
GatB (Glutamyl-tRNA amidotransferase, subunit B) [DRSC27887] gave mitotic cells, replicate 1 = 2.
Knock-down of Oatp33Eb (Organic anion transporting polypeptide 33Eb) [DRSC02955] resulted in: mitotic cells, replicate 1 = 3.
With knock-down of CG31827 + CG18478 [DRSC01958], the screen gave mitotic cells, replicate 1 = 6.
After knock-down of SppL (Signal peptide peptidase-like) [DRSC15228], the screen gave mitotic cells, replicate 1 = 7.
CG31091 [DRSC15933] gave mitotic cells, replicate 1 = 7.
Knock-down of CG7196 (retired record) [DRSC01000] came out at: mitotic cells, replicate 1 = 6.
CG7196 (retired record) [DRSC03023] showed mitotic cells, replicate 1 = 5.
For CG12849 [DRSC04129], the values are mitotic cells, replicate 1 = 7.
For sphinx2 [DRSC22188], the values are mitotic cells, replicate 1 = 2.
Silencing of sphinx2 [DRSC24771] resulted in: mitotic cells, replicate 1 = 6.
